Assay results as given in the M2OR odorant receptor database.
The entries are a selection whose mix differs from that of the whole data set. Calls are pooled over several reports, among them a noisy single-well screen. The list shows a part of the results.

What was measured:
Settings in all cases: stereoisomer not certain
OR6B1 = tested on: T1, OR6B1
T1 sequence (whole entry): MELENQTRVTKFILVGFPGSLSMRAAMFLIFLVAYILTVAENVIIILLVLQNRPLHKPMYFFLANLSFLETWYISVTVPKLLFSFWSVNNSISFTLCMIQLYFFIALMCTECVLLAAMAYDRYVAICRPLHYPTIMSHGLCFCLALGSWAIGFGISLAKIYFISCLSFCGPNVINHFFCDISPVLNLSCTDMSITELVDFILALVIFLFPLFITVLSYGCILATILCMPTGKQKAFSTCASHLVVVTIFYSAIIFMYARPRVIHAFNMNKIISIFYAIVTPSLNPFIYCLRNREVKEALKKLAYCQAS
Procedure, shortened: (§1)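 Whether a receptor–molecule pair is responsive (active) rests on the original authors' judgment that its measured signal was statistically different from baseline. Pairs without that judgment are non-responsive (inactive). Sources used varied assay methods, commonly transient luciferase assays in mammalian cell lines.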

OR6B2 = tested on: T2, OR6B2
T2 sequence (whole entry): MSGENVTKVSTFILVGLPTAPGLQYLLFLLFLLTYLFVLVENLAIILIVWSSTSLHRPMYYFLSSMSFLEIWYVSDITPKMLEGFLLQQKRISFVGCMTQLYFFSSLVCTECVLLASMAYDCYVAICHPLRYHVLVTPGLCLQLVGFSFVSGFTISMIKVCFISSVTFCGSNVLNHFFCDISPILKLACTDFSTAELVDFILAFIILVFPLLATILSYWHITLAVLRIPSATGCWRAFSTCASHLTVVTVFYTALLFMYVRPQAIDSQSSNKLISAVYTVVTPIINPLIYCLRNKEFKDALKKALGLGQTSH
Procedure, shortened: as §1

OR6B3 = tested on: T3, OR6B3
T3 sequence (whole entry): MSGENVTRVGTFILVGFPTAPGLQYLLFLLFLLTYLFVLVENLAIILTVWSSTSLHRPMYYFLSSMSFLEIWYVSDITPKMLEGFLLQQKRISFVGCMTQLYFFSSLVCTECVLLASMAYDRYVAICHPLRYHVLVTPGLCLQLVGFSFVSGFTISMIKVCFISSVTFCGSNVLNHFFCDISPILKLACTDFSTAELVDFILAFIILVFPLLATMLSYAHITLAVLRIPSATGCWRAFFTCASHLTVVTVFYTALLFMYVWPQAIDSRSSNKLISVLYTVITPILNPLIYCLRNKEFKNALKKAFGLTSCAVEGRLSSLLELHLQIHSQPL
Procedure, shortened: as §1

OR6C1 = tested on: T4, OR6C1
T4 sequence (whole entry): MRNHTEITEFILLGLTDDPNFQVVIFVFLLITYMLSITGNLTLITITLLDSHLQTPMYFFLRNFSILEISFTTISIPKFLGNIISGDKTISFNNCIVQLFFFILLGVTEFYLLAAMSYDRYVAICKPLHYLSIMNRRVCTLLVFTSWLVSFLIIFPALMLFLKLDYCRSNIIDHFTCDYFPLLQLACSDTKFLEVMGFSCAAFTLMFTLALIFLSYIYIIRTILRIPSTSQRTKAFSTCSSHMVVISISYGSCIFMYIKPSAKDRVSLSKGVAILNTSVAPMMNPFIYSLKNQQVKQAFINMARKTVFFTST
Procedure, shortened: as §1

OR6C2 (Homo sapiens) = target: T5, OR6C2 (Homo sapiens) (UniProt Q9NZP2)
T5 sequence (whole entry): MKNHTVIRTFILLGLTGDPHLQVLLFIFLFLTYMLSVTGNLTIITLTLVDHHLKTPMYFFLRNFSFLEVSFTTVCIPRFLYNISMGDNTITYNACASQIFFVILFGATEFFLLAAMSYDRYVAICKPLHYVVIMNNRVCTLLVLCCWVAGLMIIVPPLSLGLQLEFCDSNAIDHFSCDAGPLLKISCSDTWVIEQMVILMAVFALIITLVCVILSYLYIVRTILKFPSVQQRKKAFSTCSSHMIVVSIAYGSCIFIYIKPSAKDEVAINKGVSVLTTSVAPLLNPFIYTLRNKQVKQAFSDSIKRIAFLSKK
Procedure, shortened: as §1

OR6C3 (Homo sapiens) = target: T6, OR6C3 (Homo sapiens) (UniProt Q9NZP0)
T6 sequence (whole entry): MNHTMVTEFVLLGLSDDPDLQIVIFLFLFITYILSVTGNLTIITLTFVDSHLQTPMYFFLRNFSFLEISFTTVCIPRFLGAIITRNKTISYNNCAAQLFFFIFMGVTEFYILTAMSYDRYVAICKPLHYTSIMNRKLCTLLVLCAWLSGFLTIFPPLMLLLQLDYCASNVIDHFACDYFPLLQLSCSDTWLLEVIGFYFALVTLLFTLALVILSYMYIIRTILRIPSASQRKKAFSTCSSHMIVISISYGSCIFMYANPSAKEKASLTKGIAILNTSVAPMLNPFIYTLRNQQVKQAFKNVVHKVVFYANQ
Procedure, shortened: as §1

OR6C4 = tested on: T7, OR6C4
T7 sequence (whole entry): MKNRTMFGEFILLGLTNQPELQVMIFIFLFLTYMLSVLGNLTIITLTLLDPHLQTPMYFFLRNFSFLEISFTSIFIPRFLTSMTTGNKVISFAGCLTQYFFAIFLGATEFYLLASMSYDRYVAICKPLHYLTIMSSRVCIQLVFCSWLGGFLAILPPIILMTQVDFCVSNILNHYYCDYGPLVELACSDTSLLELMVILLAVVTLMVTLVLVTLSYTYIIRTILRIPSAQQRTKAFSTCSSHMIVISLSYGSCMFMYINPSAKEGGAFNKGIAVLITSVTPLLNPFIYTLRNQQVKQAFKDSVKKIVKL
Procedure, shortened: as §1

OR6C6 (Homo sapiens) = target: T8, OR6C6 (Homo sapiens) (UniProt A6NF89)
T8 sequence (whole entry): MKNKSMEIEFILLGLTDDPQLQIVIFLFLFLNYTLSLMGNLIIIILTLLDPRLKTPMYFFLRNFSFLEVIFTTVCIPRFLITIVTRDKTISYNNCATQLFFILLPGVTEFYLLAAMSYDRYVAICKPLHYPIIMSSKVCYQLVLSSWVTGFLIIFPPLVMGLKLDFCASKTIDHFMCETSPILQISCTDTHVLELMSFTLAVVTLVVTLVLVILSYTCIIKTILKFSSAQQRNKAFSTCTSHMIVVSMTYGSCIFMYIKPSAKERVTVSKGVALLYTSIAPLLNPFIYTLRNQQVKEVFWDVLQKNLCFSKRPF
Procedure, shortened: as §1

OR6C65 (Homo sapiens) = target: T9, OR6C65 (Homo sapiens) (UniProt A6NJZ3)
T9 sequence (whole entry): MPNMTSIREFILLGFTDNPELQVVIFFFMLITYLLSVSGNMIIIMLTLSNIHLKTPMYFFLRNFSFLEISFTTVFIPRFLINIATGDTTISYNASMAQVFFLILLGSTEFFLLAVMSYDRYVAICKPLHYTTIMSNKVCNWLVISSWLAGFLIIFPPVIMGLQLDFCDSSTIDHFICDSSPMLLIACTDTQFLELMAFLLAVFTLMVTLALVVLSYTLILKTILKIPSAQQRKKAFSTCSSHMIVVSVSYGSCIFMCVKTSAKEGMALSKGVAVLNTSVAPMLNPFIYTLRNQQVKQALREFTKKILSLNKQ
Procedure, shortened: as §1

OR6C74 (Homo sapiens) = target: T10, OR6C74 (Homo sapiens) (UniProt A6NCV1)
T10 sequence (whole entry): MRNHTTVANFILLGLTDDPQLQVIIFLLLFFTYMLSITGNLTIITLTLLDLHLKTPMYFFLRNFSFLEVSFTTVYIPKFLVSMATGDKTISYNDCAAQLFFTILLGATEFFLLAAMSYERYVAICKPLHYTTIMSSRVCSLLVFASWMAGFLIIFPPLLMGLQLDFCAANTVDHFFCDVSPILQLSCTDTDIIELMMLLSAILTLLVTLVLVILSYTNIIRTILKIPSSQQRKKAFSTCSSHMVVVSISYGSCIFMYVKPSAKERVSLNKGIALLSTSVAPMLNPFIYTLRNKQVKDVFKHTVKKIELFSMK
Procedure, shortened: as §1

OR6C75 (Homo sapiens) = target: T11, OR6C75 (Homo sapiens) (UniProt A6NL08)
T11 sequence (whole entry): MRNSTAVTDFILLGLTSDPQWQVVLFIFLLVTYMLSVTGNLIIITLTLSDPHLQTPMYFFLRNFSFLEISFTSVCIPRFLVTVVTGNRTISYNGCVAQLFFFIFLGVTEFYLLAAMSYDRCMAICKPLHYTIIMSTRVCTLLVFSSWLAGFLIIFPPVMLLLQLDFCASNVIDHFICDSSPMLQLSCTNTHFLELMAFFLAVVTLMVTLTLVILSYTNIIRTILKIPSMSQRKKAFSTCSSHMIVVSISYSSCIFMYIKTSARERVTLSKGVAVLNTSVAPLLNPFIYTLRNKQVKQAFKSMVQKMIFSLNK
Procedure, shortened: as §1

OR6C76 (Homo sapiens) = target: T12, OR6C76 (Homo sapiens) (UniProt A6NM76)
T12 sequence (whole entry): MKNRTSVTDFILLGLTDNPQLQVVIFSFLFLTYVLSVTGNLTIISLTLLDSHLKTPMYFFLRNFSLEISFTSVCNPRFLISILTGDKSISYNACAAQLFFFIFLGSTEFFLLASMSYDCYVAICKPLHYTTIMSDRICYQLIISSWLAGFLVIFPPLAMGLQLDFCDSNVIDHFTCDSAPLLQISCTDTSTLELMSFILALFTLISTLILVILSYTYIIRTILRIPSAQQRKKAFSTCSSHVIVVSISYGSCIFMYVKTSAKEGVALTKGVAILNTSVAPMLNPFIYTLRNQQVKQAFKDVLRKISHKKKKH
Procedure, shortened: as §1

OR6F1 (Homo sapiens) = target: T13, OR6F1 (Homo sapiens) (UniProt Q8NGZ6)
T13 sequence (whole entry): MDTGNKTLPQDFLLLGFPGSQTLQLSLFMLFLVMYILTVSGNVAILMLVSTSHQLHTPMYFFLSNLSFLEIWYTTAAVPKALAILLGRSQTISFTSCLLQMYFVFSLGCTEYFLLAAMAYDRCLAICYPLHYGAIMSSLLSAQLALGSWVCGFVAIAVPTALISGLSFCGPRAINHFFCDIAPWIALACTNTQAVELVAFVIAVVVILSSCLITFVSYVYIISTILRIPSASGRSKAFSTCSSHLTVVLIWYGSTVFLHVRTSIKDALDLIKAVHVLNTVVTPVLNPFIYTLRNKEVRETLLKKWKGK
Procedure, shortened: as §1

Measured: odorant receptor agonist call;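 also: active if original authors judged signal statistically different from baseline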

CC(=O)OC(C)(C)C1CC=C(C)CC1 (centres undefined)
inactive: all assays above

O=CCc1ccccc1
inactive: all assays above

COc1ccccc1O
inactive: all assays above

CC12CCC(CC1)C(C)(C)O2
inactive: all assays above

CC1COCc2cc3c(cc21)C(C)(C)C(C)C3(C)C (centres undefined)
inactive: OR6B1
active: all other assays above

C=CCSCC=C
inactive: all assays above

C=CCc1ccc(OC(C)=O)c(OC)c1
inactive: all assays above

CCC=CCCO
inactive: all assays above
